Results are given in words; binding and its absence hold for the method and conditions named. Some results given as binding are weak or reduced against the parent protein; the word gives no strength.
Assays:
[1] = molecular target: T1, HNF-4 truncated protein translated in vitro from Hga I-cut pf7 template (cut at nucleotide 1171) (rat) (UniProt P22449); test: co-translation in vitro (reticulocyte lysate), gel mobility-shift with 32P APF-1 probe; complexes of intermediate mobility
T1 sequence: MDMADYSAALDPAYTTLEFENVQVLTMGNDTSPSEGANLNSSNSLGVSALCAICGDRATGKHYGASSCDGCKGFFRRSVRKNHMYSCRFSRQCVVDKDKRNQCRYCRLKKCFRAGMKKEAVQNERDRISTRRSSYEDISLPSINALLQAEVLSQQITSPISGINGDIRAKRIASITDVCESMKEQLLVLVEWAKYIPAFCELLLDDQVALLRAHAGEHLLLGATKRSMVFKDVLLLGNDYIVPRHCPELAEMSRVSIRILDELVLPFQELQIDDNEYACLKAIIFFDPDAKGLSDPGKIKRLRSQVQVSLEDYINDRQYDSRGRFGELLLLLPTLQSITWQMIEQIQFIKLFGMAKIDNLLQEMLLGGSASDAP

[2] = molecular target: T2, HNF-4 truncated protein translated in vitro from PflM I-cut pf7 template (cut at nucleotide 1309) (rat) (UniProt P22449); test: as above
T2 sequence: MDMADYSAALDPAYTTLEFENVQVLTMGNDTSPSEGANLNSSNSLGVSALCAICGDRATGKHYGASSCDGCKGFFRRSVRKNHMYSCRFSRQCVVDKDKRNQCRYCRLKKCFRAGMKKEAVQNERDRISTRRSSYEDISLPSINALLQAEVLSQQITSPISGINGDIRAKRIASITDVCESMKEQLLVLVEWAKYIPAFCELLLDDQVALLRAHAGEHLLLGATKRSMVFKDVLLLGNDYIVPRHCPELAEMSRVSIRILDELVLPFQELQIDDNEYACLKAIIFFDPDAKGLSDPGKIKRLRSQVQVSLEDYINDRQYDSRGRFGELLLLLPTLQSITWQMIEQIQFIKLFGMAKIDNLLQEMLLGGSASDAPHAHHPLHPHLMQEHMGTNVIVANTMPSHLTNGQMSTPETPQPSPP

[3] = molecular target: T1, HNF-4 truncated protein translated in vitro from Hga I-cut pf7 template (cut at nucleotide 1171) (rat); test: co-translation in vitro, gel mobility-shift (FIG. 5D)
[4] = molecular target: T2, HNF-4 truncated protein translated in vitro from PflM I-cut pf7 template (cut at nucleotide 1309) (rat); test: as above

Measured: binding

B1: HNF-4 (hepatocyte nuclear factor 4), full length protein translated in vitro from pf7 cDNA (Xho I-cut template) (receptor)
chain: MDMADYSAALDPAYTTLEFENVQVLTMGNDTSPSEGANLNSSNSLGVSALCAICGDRATGKHYGASSCDGCKGFFRRSVRKNHMYSCRFSRQCVVDKDKRNQCRYCRLKKCFRAGMKKEAVQNERDRISTRRSSYEDISLPSINALLQAEVLSQQITSPISGINGDIRAKRIASITDVCESMKEQLLVLVEWAKYIPAFCELLLDDQVALLRAHAGEHLLLGATKRSMVFKDVLLLGNDYIVPRHCPELAEMSRVSIRILDELVLPFQELQIDDNEYACLKAIIFFDPDAKGLSDPGKIKRLRSQVQVSLEDYINDRQYDSRGRFGELLLLLPTLQSITWQMIEQIQFIKLFGMAKIDNLLQEMLLGGSASDAPHAHHPLHPHLMQEHMGTNVIVANTMPSHLTNGQMSTPETPQPSPPSGSGSESYKLLPGAITTIVKPPSAIPQPTITKQEAI
notes: Translated in rabbit reticulocyte lysate from T3/T7 transcripts of pf7 (rat liver cDNA); also called full length cDNA (Xho I); in vitro synthesized HNF-4
binds: all assays above
